These results are taken from article PMC10940650.

The chains behind the UniProt entries cited, without tags or fusion partners.
UniProt Q13283: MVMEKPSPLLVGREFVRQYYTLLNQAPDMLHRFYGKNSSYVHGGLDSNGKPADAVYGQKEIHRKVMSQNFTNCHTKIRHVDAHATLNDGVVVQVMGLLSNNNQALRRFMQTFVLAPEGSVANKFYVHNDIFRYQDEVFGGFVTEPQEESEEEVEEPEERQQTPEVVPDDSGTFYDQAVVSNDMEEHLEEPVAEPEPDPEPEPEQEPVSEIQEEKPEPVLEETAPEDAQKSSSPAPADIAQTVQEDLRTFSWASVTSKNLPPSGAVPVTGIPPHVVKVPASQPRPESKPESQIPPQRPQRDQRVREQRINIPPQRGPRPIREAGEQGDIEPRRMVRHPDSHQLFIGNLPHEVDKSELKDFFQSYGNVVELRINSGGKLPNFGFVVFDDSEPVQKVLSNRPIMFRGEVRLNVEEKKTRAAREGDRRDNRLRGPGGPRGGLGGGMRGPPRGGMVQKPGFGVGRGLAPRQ

In experiment [1] the target is T1, NUPR1 (Nuclear Protein 1) (human (endogenous in MiaPaCa-2)) (UniProt O60356).
T1 sequence: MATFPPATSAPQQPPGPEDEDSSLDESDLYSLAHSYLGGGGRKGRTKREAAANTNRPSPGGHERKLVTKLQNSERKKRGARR
The experiment in a line: proximity ligation; Duolink In Situ on fixed, permeabilised MiaPaCa-2 cells; rabbit anti-NUPR1 and mouse anti-G3BP1; control cells or arsenate 0.5 mM for 1 h.

The target in experiment [2] is T1, NUPR1 (Nuclear Protein 1) (human (endogenous in MiaPaCa-2)). The experiment in a line: proximity ligation; Duolink In Situ on fixed, permeabilised MiaPaCa-2 cells; rabbit anti-NUPR1 and mouse anti-G3BP1; cells treated with ZZW-115 at 6 µM for 6 h, with or without arsenate 0.5 mM for 1 h.

Results are given in words; binding and its absence hold for the method and conditions named. Binding seen in cells or lysates may run through a third protein. Some binding calls cover weakened binding; strength is not graded here.

On to G3BP1 (from UniProt Q13283 1-466), for which the binding result is reported as “binds” in experiment [1] and “binds weakly” in experiment [2].
